Assay results published in patent US20100069468.

The chains behind the UniProt entries cited, without tags or fusion partners. Where a name states a change or a piece, a line headed by the entry shows the natural chain unless it says otherwise.
UniProt P05067: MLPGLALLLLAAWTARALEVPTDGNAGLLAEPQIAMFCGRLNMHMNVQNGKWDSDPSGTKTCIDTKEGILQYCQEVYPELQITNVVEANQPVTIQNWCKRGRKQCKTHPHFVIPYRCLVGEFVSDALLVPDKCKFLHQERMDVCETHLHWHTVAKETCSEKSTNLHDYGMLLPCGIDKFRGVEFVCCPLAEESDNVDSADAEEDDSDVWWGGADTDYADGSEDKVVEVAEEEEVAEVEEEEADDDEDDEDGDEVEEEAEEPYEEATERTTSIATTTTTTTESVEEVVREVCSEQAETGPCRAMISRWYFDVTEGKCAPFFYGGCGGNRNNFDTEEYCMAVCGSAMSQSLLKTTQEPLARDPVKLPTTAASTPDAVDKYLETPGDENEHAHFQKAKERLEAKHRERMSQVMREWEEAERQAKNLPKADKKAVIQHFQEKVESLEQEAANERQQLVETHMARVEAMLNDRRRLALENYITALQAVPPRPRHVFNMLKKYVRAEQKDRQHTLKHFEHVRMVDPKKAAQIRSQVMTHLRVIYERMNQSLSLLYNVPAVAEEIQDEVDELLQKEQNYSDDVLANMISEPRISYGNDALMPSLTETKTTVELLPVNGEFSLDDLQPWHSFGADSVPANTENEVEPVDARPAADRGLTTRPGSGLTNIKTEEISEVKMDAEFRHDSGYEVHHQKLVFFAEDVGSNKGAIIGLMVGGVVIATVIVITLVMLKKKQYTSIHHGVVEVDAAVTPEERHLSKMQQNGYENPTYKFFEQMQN

Biological target: beta-amyloid peptide Abeta(1-40) (UniProt P05067)
Test: binding assay
Conditions: CITED Ylera et al. 2002; highest affinity Abeta(1-40) aptamer; protein details: 40-residue peptide, dissolved in HFIP

**Q.** Which Kd does the source give for “UUUACCGUAAGGCCUGUCUUCGUUUGACAGCGGCUUGUUGACCCUCACACUUUGUACCUGCUGCCAA [B55]” here?
**A.** 29 nM

The exact form of at least one protein or probe is not confirmed.
